Patent US5550212A (The Administrators of the Tulane Educational Fund, priority 1993, dated 1996)
Some peptides are written in HELM: one residue between dots, names in brackets for other building blocks, links after the first $.

What was measured:
[1] = general procedure: Boc solid-phase peptide synthesis; BHA resin; DIC; BOP; preformed HOBt esters for Boc-Asn-OH and Boc-Gln-OH; conditions: whole synthesis, scale 0.11 mmole
[2] = general procedure: Boc solid-phase peptide synthesis; MBHA or BHA resin (Bachem); Boc-Agm resin (California Peptide Res. Inc.); DIC; BOP; preformed HOBt esters for Boc-Asn-OH and Boc-Gln-OH; conditions: whole synthesis, scale of the general procedure 0.11 mmole
[3] = general procedure: Boc solid-phase peptide synthesis; MBHA resin; DIC; BOP; preformed HOBt esters for Boc-Asn-OH and Boc-Gln-OH; conditions: whole synthesis, scale 0.11 mmole

PEPTIDE1{[Ibu].H.[dR].D.A.I.[Tpi].T.N.S.Y.R.K.V.L.[Abu].Q.L.S.A.R.K.L.L.Q.D.I.[Nle].S.R.[am]}$$$$V2.0
crude mass [1]: approximately 150 mg | final HPLC purity ([2]; analytical HPLC, W-Porex C18, monitored at 220 and 280 nm): >95%

PEPTIDE1{[Nac].Y.[dR].D.A.I.[Phe(pCl)].T.N.S.Y.R.K.V.L.[Abu].Q.L.S.A.R.K.L.L.Q.D.I.[Nle].S.R.[am]}$$$$V2.0
crude mass [3]: 145 mg | final HPLC purity ([2]; 220 and 280 nm): >95%
